These are yes or no findings as the source states them, for the method shown. Binding seen in cells or lysates may run through a third protein. Some results given as binding are weak or reduced against the parent protein; the word gives no strength.
Target: Sex-determining region Y-box2 (Sox2), endogenous in mESCs (mouse (endogenous in E14 mESCs)) (UniProt P48432)
Assay: co-IP; endogenous proteins; mESC lysates (1% Triton X-100, 100 mM NaCl, 20 mM Tris pH 7.5), indicated antibodies with protein A/G plus agarose beads, immunoblot

The chains behind the UniProt entries cited, without tags or fusion partners.
UniProt P48432: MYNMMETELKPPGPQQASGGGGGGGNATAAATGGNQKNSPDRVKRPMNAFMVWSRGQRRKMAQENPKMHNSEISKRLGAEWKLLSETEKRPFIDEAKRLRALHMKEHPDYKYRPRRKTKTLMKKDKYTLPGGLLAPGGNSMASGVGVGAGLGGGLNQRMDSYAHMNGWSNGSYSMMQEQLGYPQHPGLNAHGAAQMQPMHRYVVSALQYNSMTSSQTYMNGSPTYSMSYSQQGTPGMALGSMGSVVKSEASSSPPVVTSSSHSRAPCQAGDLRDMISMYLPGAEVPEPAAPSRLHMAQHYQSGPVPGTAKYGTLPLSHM
UniProt Q9R210: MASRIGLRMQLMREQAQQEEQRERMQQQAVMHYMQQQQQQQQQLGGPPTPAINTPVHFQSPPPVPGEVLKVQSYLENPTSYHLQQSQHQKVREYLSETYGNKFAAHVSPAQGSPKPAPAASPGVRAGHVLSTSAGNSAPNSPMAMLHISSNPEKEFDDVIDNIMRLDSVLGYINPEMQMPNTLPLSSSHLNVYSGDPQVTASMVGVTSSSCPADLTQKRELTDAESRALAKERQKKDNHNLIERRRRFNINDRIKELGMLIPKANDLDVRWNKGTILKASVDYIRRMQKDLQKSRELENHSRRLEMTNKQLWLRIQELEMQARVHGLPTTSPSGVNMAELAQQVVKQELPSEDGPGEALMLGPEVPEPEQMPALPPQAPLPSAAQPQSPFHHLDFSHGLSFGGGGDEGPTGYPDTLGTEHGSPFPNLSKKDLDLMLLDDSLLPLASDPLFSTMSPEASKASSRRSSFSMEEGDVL

In the case of “Transcription factor EB (TFEB), endogenous in mESCs (from UniProt Q9R210 1-475)”, the binding is reported as “binds”.
